For test [1], the target named is human IL-10 expressed in E. coli for crystallisation (human) (UniProt P22301). Nature of the test: X-ray co-crystal structure at 3.48 A.
Test [2] has the same target. Nature of the test: complex formation, size exclusion chromatography.

The chains behind the UniProt entries cited, without tags or fusion partners. Where a name states a change or a piece, a line headed by the entry shows the natural chain unless it says otherwise.
UniProt P22301: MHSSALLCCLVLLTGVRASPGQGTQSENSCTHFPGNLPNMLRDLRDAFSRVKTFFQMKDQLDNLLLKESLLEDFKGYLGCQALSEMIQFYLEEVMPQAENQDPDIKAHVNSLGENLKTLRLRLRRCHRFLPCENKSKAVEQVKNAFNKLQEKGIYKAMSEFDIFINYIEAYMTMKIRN

For one molecule, binding results are on record in patent US20150064179A1 (BIOTEST, published 2015).

No constants are given. Whether binding was seen depends on the method and setting. Some results given as binding are weak or reduced against the parent protein; the word gives no strength.

B1: Fab fragment of BT-063 (variant hVH26/hVL7) (Fab, V domains shown)
VH: EVQLVESGGGLVQPGGSLRLSCAASGFSFATYGVHWVRQSPGKGLEWLGVIWRGGSTDYSAAFMSRLTISKDNSKNTVYLQMNSLRAEDTAVYFCAKQAYGHYMDYWGQGTSVTVSS
VL: DVVMTQSPLSLPVTLGQPASISCRSSQNIVHSNGNTYLEWYLQRPGQSPRLLIYKVSNRFSGVPDRFSGSGSGTDFTLKISRVEAEDVGVYYCFQGSHVPWTFGQGTKVEIK
As to B1, the binding result in test [1] and in test [2] was “binds” in each case.
